No constants are given. Whether binding was seen depends on the method and setting. Binding seen in cells or lysates may run through a third protein. Some results given as binding are weak or reduced against the parent protein; the word gives no strength.
Experiments:
[1] = target: EZH2 (wildtype, transiently overexpressed in HEK293T cells) (UniProt Q15910); assay: co-immunoprecipitation from HEK293T cells overexpressing EZH2 and CDK6 (FIG. 5c)
[2] = target: EZH2 (wildtype, transiently overexpressed in HEK293T cells) (UniProt Q15910); assay: co-immunoprecipitation (pulldown with CDK6-specific antibody) from HEK293T cells overexpressing EZH2 and CDK6

By UniProt entry, the sequences of proteins in these tests, tags left out.
UniProt Q15910: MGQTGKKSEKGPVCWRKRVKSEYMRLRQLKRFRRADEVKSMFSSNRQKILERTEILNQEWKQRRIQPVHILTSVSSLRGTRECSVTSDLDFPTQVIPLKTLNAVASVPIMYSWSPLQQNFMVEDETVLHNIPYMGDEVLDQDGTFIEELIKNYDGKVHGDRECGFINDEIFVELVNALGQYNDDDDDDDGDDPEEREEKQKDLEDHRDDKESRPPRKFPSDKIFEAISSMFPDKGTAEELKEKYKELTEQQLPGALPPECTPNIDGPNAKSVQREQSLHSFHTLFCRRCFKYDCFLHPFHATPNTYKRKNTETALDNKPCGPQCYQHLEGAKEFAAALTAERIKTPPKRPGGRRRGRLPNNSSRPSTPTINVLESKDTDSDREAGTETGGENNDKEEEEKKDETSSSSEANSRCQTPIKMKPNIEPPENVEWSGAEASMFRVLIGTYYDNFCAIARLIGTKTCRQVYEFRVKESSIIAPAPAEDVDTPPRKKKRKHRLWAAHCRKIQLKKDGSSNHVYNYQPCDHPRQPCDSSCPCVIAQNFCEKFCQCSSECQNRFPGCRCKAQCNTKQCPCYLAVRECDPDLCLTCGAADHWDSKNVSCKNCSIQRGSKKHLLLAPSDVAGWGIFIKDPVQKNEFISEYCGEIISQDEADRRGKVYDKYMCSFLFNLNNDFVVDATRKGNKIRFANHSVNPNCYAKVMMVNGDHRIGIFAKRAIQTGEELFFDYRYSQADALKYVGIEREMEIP
UniProt Q00534: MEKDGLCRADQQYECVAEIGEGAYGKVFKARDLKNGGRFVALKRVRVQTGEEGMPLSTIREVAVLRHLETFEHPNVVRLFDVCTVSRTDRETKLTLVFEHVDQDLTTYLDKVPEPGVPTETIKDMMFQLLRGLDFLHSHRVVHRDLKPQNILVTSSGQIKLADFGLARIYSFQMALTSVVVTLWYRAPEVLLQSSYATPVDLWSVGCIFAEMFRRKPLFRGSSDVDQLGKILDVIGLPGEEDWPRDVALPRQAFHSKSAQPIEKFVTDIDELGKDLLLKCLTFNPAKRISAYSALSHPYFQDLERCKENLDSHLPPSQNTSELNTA

Substance: CDK6 (from UniProt Q00534 1-326) (enzyme)
- binding [1]: binds
- binding [2]: binds

— US20220280511A1, “CDK4/6 INHIBITORS FOR THE TREATMENT OF PSORIASIS” (EBERHARD KARLS UNIVERSITAET TUEBINGEN MEDIZINISCHE FAKULTAET, priority 2019, published 2022)
